Source: patent publication US20190183976A1
No constants are given. Whether binding was seen depends on the method and setting. Some entries that bind do so weakly or less than the wild type.

Chains of the proteins cited; added tags and fusions are not shown.
UniProt P61073: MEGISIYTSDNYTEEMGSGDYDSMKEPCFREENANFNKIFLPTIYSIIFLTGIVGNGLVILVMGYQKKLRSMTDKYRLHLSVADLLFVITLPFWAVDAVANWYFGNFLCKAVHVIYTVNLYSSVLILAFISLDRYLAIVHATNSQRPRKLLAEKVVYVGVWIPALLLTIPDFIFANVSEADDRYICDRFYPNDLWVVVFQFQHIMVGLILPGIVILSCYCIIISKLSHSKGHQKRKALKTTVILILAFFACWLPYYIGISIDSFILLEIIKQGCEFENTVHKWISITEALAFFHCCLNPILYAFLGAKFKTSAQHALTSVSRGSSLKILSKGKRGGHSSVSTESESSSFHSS

Legend:
[1] = molecular target: CXCR4-EGFP (human) (UniProt P61073); test: co-internalization of CXCR4-GFP after GPCRx agonist, U-2 OS cells
[2] = molecular target: CXCR4-VC (human) (UniProt P61073); test: BiFC, U-2 OS cells
[3] = molecular target: CXCR4-VC (human) (UniProt P61073); test: BiFC, U-2 OS cells (FIG. 2S)
[4] = molecular target: CXCR4-VC (human) (UniProt P61073); test: BiFC and co-internalization assay, U-2 OS cells
[5] = molecular target: CXCR4-VN (human) (UniProt P61073); test: BiFC, U-2 OS cells
[6] = molecular target: CXCR4-VN (human) (UniProt P61073); test: BiFC, U-2 OS cells (FIG. 2J)

Measured: binding

B1: PTGER3-VN (receptor, human, UniProt P43115 1-390, looked up, not shown: small tags and cut ends)
chain: MKETRGYGGDAPFCTRLNHSYTGMWAPERSAEARGNLTRPPGSGEDCGSVSVAFPITMLLTGFVGNALAMLLVSRSYRRRESKRKKSFLLCIGWLALTDLVGQLLTTPVVIVVYLSKQRWEHIDPSGRLCTFFGLTMTVFGLSSLFIASAMAVERALAIRAPHWYASHMKTRATRAVLLGVWLAVLAFALLPVLGVGQYTVQWPGTWCFISTGRGGNGTSSSHNWGNLFFASAFAFLGLLALTVTFSCNLATIKALVSRCRAKATASQSSAQWGRITTETAIQLMGIMCVLSVCWSPLLIMMLKMIFNQTSVEHCKTHTEKQKECNFFLIAVRLASLNQILDPWVYLLLRKILLRKFCQIRYHTNNYASSSTSLPCQCSSTLMWSDHLER
binds: [1] | [2] | [3] | [4]

B2: CALCR-VC (receptor, human, UniProt P30988 25-474, looked up, not shown: small tags and cut ends)
chain: AFSNQTYPTIEPKPFLYVVGRKKMMDAQYKCYDRMQQLPAYQGEGPYCNRTWDGWLCWDDTPAGVLSYQFCPDYFPDFDPSEKVTKYCDEKGVWFKHPENNRTWSNYTMCNAFTPEKLKNAYVLYYLAIVGHSLSIFTLVISLGIFVFFRSLGCQRVTLHKNMFLTYILNSMIIIIHLVEVVPNGELVRRDPVSCKILHFFHQYMMACNYFWMLCEGIYLHTLIVVAVFTEKQRLRWYYLLGWGFPLVPTTIHAITRAVYFNDNCWLSVETHLLYIIHGPVMAALVVNFFFLLNIVRVLVTKMRETHEAESHMYLKAVKATMILVPLLGIQFVVFPWRPSNKMLGKIYDYVMHSLIHFQGFFVATIYCFCNNEVQTTVKRQWAQFKIQWNQRWGRRPSNRSARAAAAAAEAGDIPIYICHQELRNEPANNQGEESAEIIPLNIIEQESSA
binds: [5] | [6]
